# This is one part of the list.
# Legend:
# Test in all cases: glycan array binding signal (z-score within array); higher = stronger binding
# Details in all cases: glycan notation: IUPAC condensed, linker removed
# [1] = biological target: Gal(b1-4)GlcNAc(b1-2)Man(a1-3)[Gal(b1-4)GlcNAc(b1-2)Man(a1-6)]Man(b1-4)GlcNAc(b1-4)GlcNAc
# Procedure, shortened: (§1)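 Arrays were curated from the Consortium for Functional Glycomics database, 3228 in total, and kept only where the protein sequence was available. Binding is expressed as a within-array Z-score. This score was averaged across arrays of the same protein sequence at different concentrations or buffers and across linkers, and negative values can be read as non-binding.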
# [2] = biological target: Gal(b1-4)GlcNAc(b1-2)Man(a1-3)[Gal(b1-4)GlcNAc(b1-2)Man(a1-6)]Man(b1-4)GlcNAc(b1-4)[Fuc(a1-6)]GlcNAc
# Procedure, shortened: as §1
# [3] = biological target: Gal(b1-4)GlcNAc(b1-2)Man(a1-3)[Gal(b1-4)GlcNAc(b1-2)Man(a1-6)][Gal(b1-4)GlcNAc(b1-4)]Man(b1-4)GlcNAc(b1-4)[Fuc(a1-6)]GlcNAc
# Procedure, shortened: as §1
# [4] = biological target: Gal(b1-4)GlcNAc(b1-2)Man(a1-3)[Gal(b1-4)GlcNAc(b1-2)Man(a1-6)][GlcNAc(b1-4)]Man(b1-4)GlcNAc(b1-4)[Fuc(a1-6)]GlcNAc
# Procedure, shortened: as §1
# [5] = biological target: Gal(b1-4)GlcNAc(b1-2)Man(a1-3)[GlcNAc(b1-2)Man(a1-6)]Man(b1-4)GlcNAc(b1-4)GlcNAc
# Procedure, shortened: as §1
# [6] = biological target: Gal(b1-4)GlcNAc(b1-2)Man(a1-3)[GlcNAc(b1-4)][Gal(b1-4)GlcNAc(b1-2)Man(a1-6)]Man(b1-4)GlcNAc(b1-4)GlcNAc
# Procedure, shortened: as §1
# [7] = biological target: Gal(b1-4)GlcNAc(b1-2)Man(a1-3)[Man(a1-6)]Man(b1-4)GlcNAc(b1-4)GlcNAc
# Procedure, shortened: as §1
# [8] = biological target: Gal(b1-4)GlcNAc(b1-2)Man(a1-6)Man(b1-4)GlcNAc(b1-4)GlcNAc
# Procedure, shortened: as §1
# [9] = biological target: Gal(b1-4)GlcNAc(b1-2)Man(a1-6)[GlcNAc(b1-2)Man(a1-3)]Man(b1-4)GlcNAc(b1-4)GlcNAc
# Procedure, shortened: as §1
# [10] = biological target: Gal(b1-4)GlcNAc(b1-2)Man(a1-6)[Man(a1-3)]Man(b1-4)GlcNAc(b1-4)GlcNAc
# Procedure, shortened: as §1
# [11] = biological target: Gal(b1-4)GlcNAc(b1-2)[Gal(b1-4)GlcNAc(b1-4)]Man(a1-3)[Gal(b1-4)GlcNAc(b1-2)Man(a1-6)]Man(b1-4)GlcNAc(b1-4)GlcNAc
# Procedure, shortened: as §1
# [12] = biological target: Gal(b1-4)GlcNAc(b1-2)[Gal(b1-4)GlcNAc(b1-4)]Man(a1-3)[Gal(b1-4)GlcNAc(b1-2)[Gal(b1-4)GlcNAc(b1-6)]Man(a1-6)]Man(b1-4)GlcNAc(b1-4)GlcNAc
# Procedure, shortened: as §1
# [13] = biological target: Gal(b1-4)GlcNAc(b1-2)[Gal(b1-4)GlcNAc(b1-4)]Man(a1-3)[GlcNAc(b1-4)][Gal(b1-4)GlcNAc(b1-2)Man(a1-6)]Man(b1-4)GlcNAc(b1-4)GlcNAc
# Procedure, shortened: as §1
# [14] = biological target: Gal(b1-4)GlcNAc(b1-2)[Gal(b1-4)GlcNAc(b1-4)]Man(a1-3)[GlcNAc(b1-4)][Gal(b1-4)GlcNAc(b1-2)[Gal(b1-4)GlcNAc(b1-6)]Man(a1-6)]Man(b1-4)GlcNAc(b1-4)GlcNAc
# Procedure, shortened: as §1
# [15] = biological target: Gal(b1-4)GlcNAc(b1-2)[Gal(b1-4)GlcNAc(b1-6)]Man(a1-6)[Gal(b1-4)GlcNAc(b1-2)Man(a1-3)]Man(b1-4)GlcNAc(b1-4)GlcNAc
# Procedure, shortened: as §1
# [16] = biological target: Gal(b1-4)GlcNAc(b1-2)[Gal(b1-4)GlcNAc(b1-6)]Man(a1-6)[Gal(b1-4)GlcNAc(b1-2)Man(a1-3)]Man(b1-4)GlcNAc(b1-4)[Fuc(a1-6)]GlcNAc
# Procedure, shortened: as §1
# [17] = biological target: Gal(b1-4)GlcNAc(b1-2)[Gal(b1-4)GlcNAc(b1-6)]Man(a1-6)[GlcNAc(b1-4)][Gal(b1-4)GlcNAc(b1-2)Man(a1-3)]Man(b1-4)GlcNAc(b1-4)GlcNAc
# Procedure, shortened: as §1
# [18] = biological target: Gal(b1-4)GlcNAc(b1-2)[Gal(b1-4)GlcNAc(b1-6)]Man(a1-6)[GlcNAc(b1-4)][Gal(b1-4)GlcNAc(b1-2)[Gal(b1-4)GlcNAc(b1-4)]Man(a1-3)]Man(b1-4)GlcNAc(b1-4)[Fuc(a1-6)]GlcNAc
# Procedure, shortened: as §1
# [19] = biological target: Gal(b1-4)GlcNAc(b1-3)Gal(b1-3)GalNAc
# Procedure, shortened: as §1
# [20] = biological target: Gal(b1-4)GlcNAc(b1-3)Gal(b1-3)GlcNAc
# Procedure, shortened: as §1
# [21] = biological target: Gal(b1-4)GlcNAc(b1-3)Gal(b1-4)Glc
# Procedure, shortened: as §1
# [22] = biological target: Gal(b1-4)GlcNAc(b1-3)Gal(b1-4)GlcNAc
# Procedure, shortened: as §1
# [23] = biological target: Gal(b1-4)GlcNAc(b1-3)Gal(b1-4)GlcNAc(b1-2)Man(a1-3)[Gal(b1-4)GlcNAc(b1-3)Gal(b1-4)GlcNAc(b1-2)Man(a1-6)]Man(b1-4)GlcNAc(b1-4)GlcNAc
# Procedure, shortened: as §1
binder,measurement,setting,value
"XTP3-B-MRH1 (Homo sapiens), Q96DZ1 (protein) LLEPLFKQSSCSYRIESYWTYEVCHGKHIRQYHEEKETGQKINIHEYYLGNMLAKNLLFEKEREAEEKEKSNEIPTKNIEGQMTPYYPVGMGNGTPCSLKQNRPRSSTVMYICHPESKHEILSVAEVTTCEYEVVILTPLLCSHPKYRFRA",glycan array binding signal (z-score),[1],-0.351
same,glycan array binding signal (z-score),[2],-0.184
same,glycan array binding signal (z-score),[3],0.082
same,glycan array binding signal (z-score),[4],0.221
same,glycan array binding signal (z-score),[5],0.025
same,glycan array binding signal (z-score),[6],-1.76
same,glycan array binding signal (z-score),[7],1.07
same,glycan array binding signal (z-score),[8],-0.194
same,glycan array binding signal (z-score),[9],-0.335
same,glycan array binding signal (z-score),[10],-0.267
same,glycan array binding signal (z-score),[11],-0.173
same,glycan array binding signal (z-score),[12],0.388
same,glycan array binding signal (z-score),[13],-0.081
same,glycan array binding signal (z-score),[14],0.945
same,glycan array binding signal (z-score),[15],-0.7
same,glycan array binding signal (z-score),[16],1.61
same,glycan array binding signal (z-score),[17],-0.494
same,glycan array binding signal (z-score),[18],-0.141
same,glycan array binding signal (z-score),[19],-1.39
same,glycan array binding signal (z-score),[20],-0.167
same,glycan array binding signal (z-score),[21],-0.377
same,glycan array binding signal (z-score),[22],2.97
same,glycan array binding signal (z-score),[23],3.79

# Some of the entries so far, with bars between the fields:
binder | measurement | setting | value
XTP3-B-MRH1 (Homo sapiens), Q96DZ1 (protein) LLEPLFKQSSCSYRIESYWTYEVCHGKHIRQYHEEKETGQKINIHEYYLGNMLAKNLLFEKEREAEEKEKSNEIPTKNIEGQMTPYYPVGMGNGTPCSLKQNRPRSSTVMYICHPESKHEILSVAEVTTCEYEVVILTPLLCSHPKYRFRA | glycan array binding signal (z-score) | [1] | -0.351
same | glycan array binding signal (z-score) | [2] | -0.184
same | glycan array binding signal (z-score) | [5] | 0.025
same | glycan array binding signal (z-score) | [16] | 1.61
same | glycan array binding signal (z-score) | [21] | -0.377

# From the supplement of paper PMC8728848
